# From patent publication US4487932A, “2,6-Dimethyl-3,5-bis-(1-adamantylhydr oxycarbonyl)-4-(2-difluoromethoxyphenyl)-1,4-dihydropyridine” (Institut Organicheskogo Sinteza Akademii Nauk Latviiskoi, priority 1983, dated 1984)
# Read-outs that look alike come from different tables or passages of the source.
# Tests used:
# [1] = in vivo; details: mouse, in vivo, ip
# Excerpt: (§1) The studies of acute toxicity established the present compound to be low-toxic.
# (§2) Acute toxicity of investigated compounds for
# (§3) white mice upon intraperitoneal administration
# [2] = test system: white mice; experiment: in vivo; details: white mice, intraperitoneal
# Excerpt: as §1, §2, §3
# [3] = test system: coronary circulation / cardiovascular system; details: for Increase of space velocity of coronary blood flow / Lowering of arterial pressure / Duration / Change of systemic venous pressure: narcotized cats; for Duration: increase of coronary blood flow
# Excerpt: The action of 2,6-dimethyl-3,5-bis-(1-adamantylhydroxycarbonyl)-4-(2-difluoromethoxyphenyl)-1,4-dihydropyridine on the cardiovascular system was investigated in experiments with cats, rats, and mice.
smiles,measurement,setting,value
"COC(=O)C1=C(C)NC(C)=C(C(=O)OC)C1c1ccccc1[N+](=O)[O-] [Niphedipine, 2,6-dimethyl-4-o-nitrophenyl-3,5-dimethoxycarbonyl-1,4-dihydropyridine, reference compound]",LD50,[1],190 mg/kg
same,LD50,[2],190(146.15-247) mg/kg
same,aortal blood flow,[3]; doses exceeding 0.02 mg/kg,a pronounced diminution of the aortal blood flow
same,sharp drop of the arterial pressure (% of the initial one),[3]; doses exceeding 0.02 mg/kg,≥ 40%
same,systemic venous pressure,[3]; doses exceeding 0.02 mg/kg,an increase of the systemic venous pressure
same,Increase of space velocity of coronary blood flow,[3]; dose 0.005 mg/kg,12%
same,Lowering of arterial pressure,[3]; dose 0.005 mg/kg,12%
same,Duration,[3]; dose 0.005 mg/kg,12 min
same,Change of systemic venous pressure,[3]; dose 0.02 mg/kg,+5%
same,Increase of space velocity of coronary blood flow,[3]; dose 0.02 mg/kg,70%
same,Lowering of arterial pressure,[3]; dose 0.02 mg/kg,35%
same,Duration,[3]; dose 0.02 mg/kg,22 min
same,Change of systemic venous pressure,[3]; dose 0.06 mg/kg,+60%
same,Increase of space velocity of coronary blood flow,[3]; dose 0.06 mg/kg,130%
same,Lowering of arterial pressure,[3]; dose 0.06 mg/kg,60%
same,Duration,[3]; dose 0.06 mg/kg,45 min
